Paper PMC9234671, “Molecular determinants of αVβ5 localization in flat clathrin lattices – role of αVβ5 in cell adhesion and proliferation” (Journal of Cell Science, 2022)
Like-named read-outs stand apart in the source and are kept apart here. Results are given in words; binding and its absence hold for the method and conditions named. In cells and extracts the contact can be indirect. Some entries that bind do so weakly or less than the wild type. Each block holds one molecule with its values, some of them ahead of it.

Amino acid sequences for entries named in this document (tags omitted).
UniProt Q9QZS3: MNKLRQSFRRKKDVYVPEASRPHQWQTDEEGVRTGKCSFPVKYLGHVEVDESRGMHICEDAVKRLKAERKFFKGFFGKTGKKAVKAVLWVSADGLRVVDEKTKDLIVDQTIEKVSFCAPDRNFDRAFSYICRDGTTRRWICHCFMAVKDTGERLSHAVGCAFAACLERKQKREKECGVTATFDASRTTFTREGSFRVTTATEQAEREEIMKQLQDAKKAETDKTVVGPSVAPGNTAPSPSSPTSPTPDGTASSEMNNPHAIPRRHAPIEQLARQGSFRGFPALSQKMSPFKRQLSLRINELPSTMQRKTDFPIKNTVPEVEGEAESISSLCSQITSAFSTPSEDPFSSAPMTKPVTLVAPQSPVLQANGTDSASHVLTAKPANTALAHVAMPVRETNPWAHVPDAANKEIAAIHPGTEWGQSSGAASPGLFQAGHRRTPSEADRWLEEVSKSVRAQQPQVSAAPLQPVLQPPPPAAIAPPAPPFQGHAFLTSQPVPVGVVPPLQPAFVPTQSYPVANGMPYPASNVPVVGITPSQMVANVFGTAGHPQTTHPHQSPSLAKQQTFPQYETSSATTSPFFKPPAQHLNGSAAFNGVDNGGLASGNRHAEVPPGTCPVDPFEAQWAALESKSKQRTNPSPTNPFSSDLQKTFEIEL
UniProt P26039: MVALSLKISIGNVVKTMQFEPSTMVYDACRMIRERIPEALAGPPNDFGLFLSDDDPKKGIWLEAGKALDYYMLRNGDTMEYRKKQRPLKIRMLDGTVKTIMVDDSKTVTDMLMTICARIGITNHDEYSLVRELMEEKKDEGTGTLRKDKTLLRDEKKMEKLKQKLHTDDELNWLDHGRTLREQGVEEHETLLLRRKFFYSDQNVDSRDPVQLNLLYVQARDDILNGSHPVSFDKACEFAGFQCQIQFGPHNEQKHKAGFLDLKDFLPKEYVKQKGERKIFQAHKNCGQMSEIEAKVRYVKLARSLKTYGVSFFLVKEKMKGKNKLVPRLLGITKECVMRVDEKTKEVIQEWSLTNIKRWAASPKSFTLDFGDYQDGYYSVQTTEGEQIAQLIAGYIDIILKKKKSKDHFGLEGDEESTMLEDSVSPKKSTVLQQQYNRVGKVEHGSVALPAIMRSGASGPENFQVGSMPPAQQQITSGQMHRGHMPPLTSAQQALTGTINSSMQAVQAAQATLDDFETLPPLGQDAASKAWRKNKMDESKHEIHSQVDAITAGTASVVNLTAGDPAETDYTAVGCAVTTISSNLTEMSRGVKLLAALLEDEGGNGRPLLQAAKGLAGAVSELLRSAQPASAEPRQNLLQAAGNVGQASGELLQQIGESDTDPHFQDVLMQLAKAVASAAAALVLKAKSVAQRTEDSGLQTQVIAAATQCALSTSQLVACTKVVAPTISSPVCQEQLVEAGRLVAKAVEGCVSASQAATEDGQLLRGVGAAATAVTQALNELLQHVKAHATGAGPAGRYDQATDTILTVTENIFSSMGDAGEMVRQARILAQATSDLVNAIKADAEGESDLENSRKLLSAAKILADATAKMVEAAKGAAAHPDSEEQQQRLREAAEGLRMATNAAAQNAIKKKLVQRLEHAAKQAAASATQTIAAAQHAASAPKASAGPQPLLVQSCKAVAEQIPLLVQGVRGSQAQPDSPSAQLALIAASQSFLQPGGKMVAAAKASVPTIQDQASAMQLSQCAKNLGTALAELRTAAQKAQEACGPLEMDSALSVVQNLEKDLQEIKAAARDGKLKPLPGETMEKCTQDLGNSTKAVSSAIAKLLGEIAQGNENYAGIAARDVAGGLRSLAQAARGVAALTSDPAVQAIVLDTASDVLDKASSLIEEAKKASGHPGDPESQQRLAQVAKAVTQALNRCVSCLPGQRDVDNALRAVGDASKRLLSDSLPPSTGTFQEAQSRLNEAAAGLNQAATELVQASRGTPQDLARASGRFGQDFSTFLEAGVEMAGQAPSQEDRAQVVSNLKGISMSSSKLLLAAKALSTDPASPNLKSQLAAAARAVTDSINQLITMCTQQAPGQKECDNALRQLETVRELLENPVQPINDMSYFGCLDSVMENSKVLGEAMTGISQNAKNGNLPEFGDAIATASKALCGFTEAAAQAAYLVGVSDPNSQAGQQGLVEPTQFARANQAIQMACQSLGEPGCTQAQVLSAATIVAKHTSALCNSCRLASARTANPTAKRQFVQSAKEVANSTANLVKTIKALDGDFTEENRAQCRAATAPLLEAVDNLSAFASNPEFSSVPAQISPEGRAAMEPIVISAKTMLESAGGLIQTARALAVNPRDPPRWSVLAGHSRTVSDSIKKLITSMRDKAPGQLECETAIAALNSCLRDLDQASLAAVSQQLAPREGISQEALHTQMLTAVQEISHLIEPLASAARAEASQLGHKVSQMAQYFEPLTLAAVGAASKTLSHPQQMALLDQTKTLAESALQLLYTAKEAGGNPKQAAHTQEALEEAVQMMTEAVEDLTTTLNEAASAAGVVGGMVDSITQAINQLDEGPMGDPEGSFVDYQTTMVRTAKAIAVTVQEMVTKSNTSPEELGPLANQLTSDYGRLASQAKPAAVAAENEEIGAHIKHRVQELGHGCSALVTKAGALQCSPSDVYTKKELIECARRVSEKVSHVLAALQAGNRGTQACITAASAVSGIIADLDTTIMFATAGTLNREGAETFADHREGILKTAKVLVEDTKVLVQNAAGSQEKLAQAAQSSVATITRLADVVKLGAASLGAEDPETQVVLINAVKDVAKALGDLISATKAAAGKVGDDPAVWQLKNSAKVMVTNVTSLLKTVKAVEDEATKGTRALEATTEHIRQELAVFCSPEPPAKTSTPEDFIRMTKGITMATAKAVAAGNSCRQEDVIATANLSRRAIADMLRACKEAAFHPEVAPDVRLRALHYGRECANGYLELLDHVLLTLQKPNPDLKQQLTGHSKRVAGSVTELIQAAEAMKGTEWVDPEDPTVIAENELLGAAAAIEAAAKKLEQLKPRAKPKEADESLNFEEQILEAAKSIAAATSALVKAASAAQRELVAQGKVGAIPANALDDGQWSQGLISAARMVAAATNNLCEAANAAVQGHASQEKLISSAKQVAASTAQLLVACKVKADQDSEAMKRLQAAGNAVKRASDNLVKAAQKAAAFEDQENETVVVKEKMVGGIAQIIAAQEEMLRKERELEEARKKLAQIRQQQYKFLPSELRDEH
UniProt Q7KZI7: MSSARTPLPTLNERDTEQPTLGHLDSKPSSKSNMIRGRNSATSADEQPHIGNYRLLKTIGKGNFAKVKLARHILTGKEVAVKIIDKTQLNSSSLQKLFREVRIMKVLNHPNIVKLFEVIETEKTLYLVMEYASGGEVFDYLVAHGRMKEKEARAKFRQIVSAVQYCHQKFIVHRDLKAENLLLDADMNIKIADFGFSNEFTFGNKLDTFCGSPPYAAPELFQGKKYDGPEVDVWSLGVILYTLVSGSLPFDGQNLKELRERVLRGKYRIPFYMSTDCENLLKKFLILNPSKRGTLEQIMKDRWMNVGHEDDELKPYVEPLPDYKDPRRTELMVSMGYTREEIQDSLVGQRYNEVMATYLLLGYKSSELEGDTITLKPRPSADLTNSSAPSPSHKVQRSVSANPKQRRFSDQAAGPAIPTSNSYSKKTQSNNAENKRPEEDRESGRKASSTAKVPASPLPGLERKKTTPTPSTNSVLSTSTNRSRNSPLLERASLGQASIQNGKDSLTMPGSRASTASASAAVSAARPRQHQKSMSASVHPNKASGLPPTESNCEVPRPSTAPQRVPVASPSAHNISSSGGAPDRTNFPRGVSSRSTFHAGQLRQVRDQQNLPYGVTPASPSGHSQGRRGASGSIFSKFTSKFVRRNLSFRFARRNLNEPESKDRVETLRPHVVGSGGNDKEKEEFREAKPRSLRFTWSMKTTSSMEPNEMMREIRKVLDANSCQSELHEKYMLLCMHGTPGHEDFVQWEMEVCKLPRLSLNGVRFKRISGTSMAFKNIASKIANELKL

Experiments:
[1] = target: mouse β1 wild-type cytoplasmic tail peptide (mouse); assay: pull-down; desthiobiotin tail peptides coupled to Dynabeads MyOne streptavidin C1, incubated with RAC-11P cell lysates (M-PER) at 4°C for 4 h, western blot; only the target purified
[2] = target: integrin β5 (endogenous, keratinocytes) (human (endogenous in PA-JEB/β4 and HaCaT keratinocytes)) (UniProt P18084); assay: co-IP; immunoprecipitation of endogenous β5 (normal rabbit serum and β6 as controls), western blot
integrin β5-S759/762A = integrin β5-S759/762A (UniProt P18084); assay: co-IP; immunoprecipitation of wild-type or mutant β5 (SE, SA) expressed in β5-deficient keratinocytes, western blot
[3] = target: wild-type integrin β5 expressed in β5-deficient PA-JEB/β4 keratinocytes (UniProt P18084); assay: as above
integrin β5-S759/762E = integrin β5-S759/762E (UniProt P18084); assay: as above
[4] = target: T1, mouse β5 wild-type tail peptide (mouse); assay: pull-down; desthiobiotin tail peptides coupled to Dynabeads MyOne streptavidin C1, incubated with RAC-11P cell lysates (M-PER) at 4°C for 4 h, western blot; only the target purified
T1 sequence (peptide, desthiobiotin on the N-terminus; C-terminal -OH): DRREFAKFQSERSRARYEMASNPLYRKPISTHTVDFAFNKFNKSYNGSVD

[5] = target: T2, mouse β3 wild-type tail peptide (mouse); assay: as above
T2 sequence (peptide, desthiobiotin on the N-terminus; C-terminal -OH): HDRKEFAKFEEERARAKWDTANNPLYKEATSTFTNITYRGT

[6] = target: T1, mouse β5 wild-type tail peptide (mouse); assay: as above; remark: listed apart in the source
[7] = target: T2, mouse β3 wild-type tail peptide (mouse); assay: as above; remark: listed apart in the source
[8] = target: mouse β1 wild-type cytoplasmic tail peptide (mouse); assay: as above; remark: listed apart in the source

Molecule: Numb (RAC-11P cell lysate) (from UniProt Q9QZS3 1-653)
binding [4]: binds | binding [1]: no binding | binding [5]: no binding

B1: SNX17 (RAC-11P cell lysate) (protein, UniProt Q8BVL3 1-470)
chain: MHFSIPETESRSGDSGGSAYVAYNIHVNGVLHCRVRYSQLLGLHEQLRKEYGANVVPAFPPKKLFSLTPAEVEQRREQLEKYMQAVRQDPLLGSSETFNSFLRRAQQETQQVPTEEVSLEVLLSNGQKVLVTVLTSDQTEDVLEAVAAKLDLPDDLIGYFSLFLVREKEDGAFSFVRKLQEFELPYVSVTSLRSQEYKIVLRKSYWDSAYDDDVMENRVGLNLLYAQTVSDIEHGWILVTKEQHRQLKSLQEKVSKKEFLRLAQTLRHYGYLRFDACVADFPEKDCPVVVSAGNSELSLQLRLPGQQLREGSFRVTRMRCWRVTSSVPLPSGGTSSPSRGRGEVRLELAFEYLMSKDRLQWVTITSPQAIMMSICLQSMVDELMVKKSGGSIRKMLRRRVGGTLRRSDSQQAVKSPPLLESPDASRESMVKLSSKLSAVSLRGIGSPSTDASASAVHGNFAFEGIGDEDL
binding [6]: binds | binding [7]: binds

B2: ARH (RAC-11P cell lysate) (protein, UniProt Q8C142 1-308)
chain: MDALKSAGRALIRSPSLAKQSWAGGRHRKLPENWTDTRETLLEGMVFSLKYLGMTLVERPKGEELSAAAVKRIVATAKASGKKLQKVTLKVSPRGIILTDSLTSQLIENVSIYRISYCTADKMHDKVFAYIAQSQQNESLECHAFLCTKRKVAQAVTLTVAQAFKVAFEFWQVSKEEKEKREKANQEGGDVPGTRRDSTPSLKTLVATGNLLDLEEVAKAPLSTVSANTNNVDETPRPQVLGNNSVVWELDDGLDEAFSRLAQSRTNPQVLDTGLSAQDIHYAQCLSPTDWDKPDSSGIDQDDDVFTF
binding [6]: binds | binding [8]: no binding | binding [7]: no binding

B3: kindlin-1 (RAC-11P cell lysate) (protein, UniProt P59113 1-677)
chain: MLSSGDLTSASWELVVRVDHANGEQQTEITLRVSGDLHIGGVMLKLVEQMNIAQDWSDYALWWEQKRCWLLKTHWTLDKCGVQADANLLFTPQHKMLRLRLPNAKTVRLRVSFSAVVFKAVADICKVLNIRRPEELSLLKPSSDYCKKKKKKEKNSKEPVIEDILNLESSSTSSGSPVSPGLYSKTMTPTYDPINGTPALSTMTWFGDSPLTEQNCSVLAFSQPPPSPDVLADMFQPRSLVDKAKMNAGWLDSSRSLMEQSIQEDEQLQLRFKYYTFFDLNPKYDAVRINQLYEQARWAVLLEEIDCTEEEMLIFAALQYHISKLSQCAEIQDFATKSEVDEVEAALSSLEVTLEGGKADNTLEDITDIPKLADYLKLFRPKKLMLKACKQYWFVFKDTSIAYFKNKELEQGEPIEKLNLRGCEIVPDVNVSGRKFGIKLLIPVADGMNEVYLRCDHEDQYARWMAACILASKGKTMADSSYQPEVISILSFLKMKNRNSSPLVASSLENMDMNPECLVSPCCAKKHKSKQLAARILEAHHNVAQMPLVEAKLQFIQAWQSLPEFGLTYYLVRFKGSKKDDILGVAYNRLIRIDAVTGIPVTTWRFANMKQWNVNWEIRQVAIEFDQNVSIAFTCLSADCKIVHEYIGGYIFLSTRSKDQNETLDEDLFHKLTGGQD
binding [6]: no binding | binding [8]: binds

B4: kindlin-2 (RAC-11P cell lysate) (protein, UniProt Q8CIB5 1-680)
chain: MALDGIRMPDGCYADGTWELSVHVTDLNRDVTLRVTGEVHIGGVMLKLVEKLDVKKDWSDHALWWEKKRTWLLKTHWTLDKCGIQADAKLQFTPQHKLLRLQLPNMKYVKVKVNFSDRVFKAVSDICKTFNIRHPEELSLLKKPRDPTKKKKKKLDDQSEDEALELEGPLIMPGSGSIYSSPGLYSKTMTPTYDAHDGSPLSPTSAWFGDSALSEGNPGILAVSQPVTSPEILAKMFKPQALLDKAKTNQGWLDSSRSLMEQDVKENEALLLRFKYYSFFDLNPKYDAIRINQLYEQAKWALLLEEIECTEEEMMMFAALQYHINKLSIMTSENHLNNSDKEVDEVDAALSDLEITLEGGKTSTILGDITSIPELADYIKVFKPKKLTLKGYKQYWCTFKDTSISCYKSREESSGTPAHQLNLRGCEVTPDVNISGQKFNIKLLIPVAEGMNEIWLRCDNEKQYAHWMAACRLASKGKTMADSSYNLEVQNILSFLKMQHLNPDPQLIPDQITTDVNPECLVSPRYLKKYKSKQITARILEAHQNVAQMSLIEAKMRFIQAWQSLPEFGITHFIARFQGGKREELIGIAYNRLIRMDASTGDAIKTWRFSNMKQWNVNWEIKMVTVEFADEVRLSFICTEVDCKVVHEFIGGYIFLSTRAKDQNESLDEEMFYKLTSGWV
binding [6]: no binding | binding [8]: binds

B5: KANK-2 (RAC-11P cell lysate) (protein, UniProt Q8BX02 1-843)
chain: MAQVLHVPAPFPGTPGQASPAAFPSKEPDPPYSVETPYGYRLDLDFLKYVDDIEKGHTLRRVAVQRRPRLGSLPRGPGSWWTSTESLCSDASGDSRHSAYSYCGRGFYPQYGALETRIGSNPRVERTLLDARRRLEDQAAAPSSGGLGSLTPSAAGSTSSLAGVGLLPPTPRSSGLSTPVAPSAGHLAHVREQMAGALRKLRQLEEQVKLIPVLQVKLSVLQEEKRQLTVQLKSQKFLGHPSGTRSRSELCLDLPEAPDDPAALETRSVGTWVRERDLGIPDGEAALVAKVAVLETQLKKALQELRAAQTQQVDLQPQAWPPPDTQVRVDTVRVVEGPREVEVAASTAAGALAQRAQSLEPYGTGLKALTTSGGPENTLVFRSHEVVETMCPLPTATTGNVHTAKKISITERSCTGAPRMTEPSSVNPRPAAASVVQPENPVPAAQDTTDKKPTRPAAASQDSQAADGAGRASLATKRKEDPADPEVNQRNLQFVGVNGGYESPSEDSSTAENSEHESTENEGPEPPARVLSPAECPQLRPPGAAVATTSLEGPQLSQESQRVPAPEVASGPDPEEEIRMDLSPDLISACLALEKYLENPNALTERELKVAYTTVLQEWLRLACRSDAHPELVRRHLVTFRAMSARLLDYVVNIADSNGNTALHYSVSHANFPVVRQLLDSGVCHVDKLNRAGYSPIMLTALATLKTQDDIETILQLFRLGNVNAKASQAGQTALMLAVSHGRVDVVRALLACEADVNIQDEDGSTALMCACEHGHKEITGLLLAVPSCDISLTDRDGSTALMVALDAGQSEIASMLYSRMNIKCSFAPMSDYESPASSSAEE
binding [8]: binds

The next lines start with the values.

binding [1]: binds
Molecule: talin (RAC-11P cell lysate) (from UniProt P26039 1-2541)

binding [2]: binds | binding (integrin β5-S759/762A): binds | binding [3]: binds | binding (integrin β5-S759/762E): binds
Molecule: microtubule affinity-regulating kinase 2 (MARK2) (from UniProt Q7KZI7 1-788) (enzyme)
